Data: article PMC6365888

Sequences of proteins named here, by UniProt entry; tags and fusion partners are left off. A change or cut given only in a name is not applied to a line headed by its entry.
UniProt P02545: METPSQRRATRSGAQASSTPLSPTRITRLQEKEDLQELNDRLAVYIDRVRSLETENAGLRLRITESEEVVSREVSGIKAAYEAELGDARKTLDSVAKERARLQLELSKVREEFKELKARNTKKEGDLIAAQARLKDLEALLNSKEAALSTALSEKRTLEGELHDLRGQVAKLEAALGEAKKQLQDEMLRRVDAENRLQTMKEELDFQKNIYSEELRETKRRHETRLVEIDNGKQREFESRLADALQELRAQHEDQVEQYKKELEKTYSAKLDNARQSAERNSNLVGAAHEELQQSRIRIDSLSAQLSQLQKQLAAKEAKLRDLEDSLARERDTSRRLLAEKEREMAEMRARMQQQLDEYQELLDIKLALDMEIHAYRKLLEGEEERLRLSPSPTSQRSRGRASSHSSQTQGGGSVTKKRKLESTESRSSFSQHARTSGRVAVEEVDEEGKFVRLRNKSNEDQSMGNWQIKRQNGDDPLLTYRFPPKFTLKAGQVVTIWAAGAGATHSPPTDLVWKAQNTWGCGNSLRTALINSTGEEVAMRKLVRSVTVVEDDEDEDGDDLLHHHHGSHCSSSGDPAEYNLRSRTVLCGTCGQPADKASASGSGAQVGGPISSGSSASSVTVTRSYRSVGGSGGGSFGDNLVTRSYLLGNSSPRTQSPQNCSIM
UniProt Q92769: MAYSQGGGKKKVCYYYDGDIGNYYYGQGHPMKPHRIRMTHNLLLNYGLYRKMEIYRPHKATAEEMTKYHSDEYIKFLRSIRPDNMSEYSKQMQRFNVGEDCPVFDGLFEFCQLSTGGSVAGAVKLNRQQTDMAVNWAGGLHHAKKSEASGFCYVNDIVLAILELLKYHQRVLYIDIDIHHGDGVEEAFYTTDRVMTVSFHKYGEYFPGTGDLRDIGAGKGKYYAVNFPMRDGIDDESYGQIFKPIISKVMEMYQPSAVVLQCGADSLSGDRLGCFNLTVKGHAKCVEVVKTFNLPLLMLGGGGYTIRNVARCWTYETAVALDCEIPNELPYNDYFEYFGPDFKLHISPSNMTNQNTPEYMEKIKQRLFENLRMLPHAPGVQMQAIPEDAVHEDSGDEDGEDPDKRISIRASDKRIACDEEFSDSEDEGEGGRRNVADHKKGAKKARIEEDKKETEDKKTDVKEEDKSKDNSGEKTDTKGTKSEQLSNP

Target: FLAG-tagged non-farnesylable prelamin A (LA-C661M) (UniProt P02545)
Test: co-IP; transfected HEK293 cells, 700 ug lysate in high detergent IP buffer (50 mM TRIS-HCl pH 8, 250 mM NaCl, 0.1% SDS, 1% NP-40) incubated overnight with anti-FLAG, protein A/G, western blot for endogenous HDAC2

With “histone deacetylase 2 (HDAC2) (from UniProt Q92769 1-488) (enzyme)” the binding was “binds weakly”.

No constants are given. Whether binding was seen depends on the method and setting. In cells and extracts the contact can be indirect. Binding calls can cover weak binding; strength is not graded here.
